{"source": "PubChem BioAssay AID504764 (Drosophila RNAi Screening Center, 2011)", "screen": "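Genes whose knock-down alters Notch-dependent transcription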 (primary screen)", "system": "Drosophila Kc167 cells", "knock-down reagent": "long dsRNA against Drosophila genes", "time to read-out": "about 5 days (4 days dsRNA, then 24 h after transfection)", "challenge": "transfection of constitutively active membrane-tethered Notch lacking the extracellular domain, read 24 h later", "measurement": "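Light from a Notch-responsive E(spl)m3 luciferase reporter under active Notch, with control-promoter and no-Notch reporter wells to normalise; raw counts from paired wells a and b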", "direction": "induced reporter light, run 1, well a and induced reporter light, run 1, well b: higher = more light from the Notch target reporter with active Notch; control promoter light, run 1, well a and control promoter light, run 1, well b: higher = more light from the viral control promoter (cell number, transfection, viability); uninduced reporter light, run 1, well a: higher = more light from the Notch target reporter without active Notch", "call rule": "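Wells with low control signal or poorly matching duplicates excluded; duplicates averaged; per source plate, z beyond ±2 for induced/control log2 ratio or beyond ±1.8 for induced/uninduced marks a hit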", "meaning of the calls": "active = modifier hit (raised or lowered Notch signal); inactive = not a hit", "note": "The screen tested about 22,000 reagents; this is a random part of those that have a named target and a result. In the full data, 403 (1.9%) are marked active. 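Unnormalised raw counts per well; ratio z-scores behind the hit calls and whether each hit raises or lowers signal are not deposited.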 The numbers tell different reagents against one gene apart. No sequences are given here. The record does not give: the amount of reagent."}
{"gene": "CG15615", "reagent": 1, "induced reporter light, run 1, well a": 67720, "induced reporter light, run 1, well b": 1.31e5, "control promoter light, run 1, well a": 1.67e5, "control promoter light, run 1, well b": 1.63e5, "uninduced reporter light, run 1, well a": 12065, "call": "inactive"}
{"gene": "uri (unconventional prefoldin RPB5 interactor)", "reagent": 1, "induced reporter light, run 1, well a": 1.67e5, "induced reporter light, run 1, well b": 1.61e5, "control promoter light, run 1, well a": 1.57e5, "control promoter light, run 1, well b": 1.67e5, "uninduced reporter light, run 1, well a": 13485, "call": "inactive"}
{"gene": "opa (odd paired)", "reagent": 1, "induced reporter light, run 1, well a": 1.25e5, "induced reporter light, run 1, well b": 94535, "control promoter light, run 1, well a": 1.47e5, "control promoter light, run 1, well b": 1.30e5, "uninduced reporter light, run 1, well a": 8182, "call": "inactive"}
{"gene": "opa (odd paired)", "reagent": 2, "call": "inactive"}
{"gene": "rib (ribbon)", "reagent": 1, "induced reporter light, run 1, well a": 89325, "induced reporter light, run 1, well b": 95130, "control promoter light, run 1, well a": 1.84e5, "control promoter light, run 1, well b": 1.63e5, "uninduced reporter light, run 1, well a": 7870, "call": "inactive"}
{"gene": "Mst84Dd (Male-specific RNA 84Dd)", "reagent": 1, "induced reporter light, run 1, well a": 98955, "induced reporter light, run 1, well b": 1.21e5, "control promoter light, run 1, well a": 1.14e5, "control promoter light, run 1, well b": 92035, "uninduced reporter light, run 1, well a": 8725, "call": "inactive"}
{"gene": "Acer (Angiotensin-converting enzyme-related)", "reagent": 1, "induced reporter light, run 1, well a": 3.20e5, "induced reporter light, run 1, well b": 2.73e5, "control promoter light, run 1, well a": 2.53e5, "control promoter light, run 1, well b": 2.75e5, "uninduced reporter light, run 1, well a": 25255, "call": "inactive"}
{"gene": "Bace (beta-site APP-cleaving enzyme)", "reagent": 1, "induced reporter light, run 1, well a": 2.08e5, "induced reporter light, run 1, well b": 1.86e5, "control promoter light, run 1, well a": 1.97e5, "control promoter light, run 1, well b": 2.02e5, "uninduced reporter light, run 1, well a": 10682, "call": "inactive"}
{"gene": "Osi12 (Osiris 12)", "reagent": 1, "induced reporter light, run 1, well a": 42555, "induced reporter light, run 1, well b": 75390, "control promoter light, run 1, well a": 74575, "control promoter light, run 1, well b": 60445, "uninduced reporter light, run 1, well a": 3805, "call": "inactive"}
{"gene": "PICK1 (Protein interacting with C kinase 1)", "reagent": 1, "induced reporter light, run 1, well a": 1.57e5, "induced reporter light, run 1, well b": 1.60e5, "control promoter light, run 1, well a": 1.77e5, "control promoter light, run 1, well b": 1.76e5, "uninduced reporter light, run 1, well a": 13328, "call": "inactive"}
{"gene": "CG34417", "reagent": 1, "induced reporter light, run 1, well a": 75585, "induced reporter light, run 1, well b": 60480, "control promoter light, run 1, well a": 68750, "control promoter light, run 1, well b": 64170, "uninduced reporter light, run 1, well a": 5140, "call": "inactive"}
{"gene": "CG34417", "reagent": 2, "induced reporter light, run 1, well a": 1.22e5, "induced reporter light, run 1, well b": 1.13e5, "control promoter light, run 1, well a": 1.56e5, "control promoter light, run 1, well b": 2.17e5, "uninduced reporter light, run 1, well a": 9728, "call": "inactive"}
{"gene": "CG34417", "reagent": 3, "induced reporter light, run 1, well a": 1.57e5, "induced reporter light, run 1, well b": 1.67e5, "control promoter light, run 1, well a": 2.11e5, "control promoter light, run 1, well b": 1.85e5, "uninduced reporter light, run 1, well a": 12465, "call": "inactive"}
{"gene": "Coq8 (Coenzyme Q8)", "reagent": 1, "induced reporter light, run 1, well a": 1.33e5, "induced reporter light, run 1, well b": 1.40e5, "control promoter light, run 1, well a": 3.24e5, "control promoter light, run 1, well b": 3.06e5, "uninduced reporter light, run 1, well a": 11525, "call": "inactive"}
{"gene": "Cpr12A (Cuticular protein 12A)", "reagent": 1, "induced reporter light, run 1, well a": 1.28e5, "induced reporter light, run 1, well b": 1.17e5, "control promoter light, run 1, well a": 1.51e5, "control promoter light, run 1, well b": 2.12e5, "uninduced reporter light, run 1, well a": 8845, "call": "inactive"}

4 entries from above, showing only “induced reporter light, run 1, well b”:
rib (ribbon)	95130
Mst84Dd (Male-specific RNA 84Dd)	1.21e5
Acer (Angiotensin-converting enzyme-related)	2.73e5
Bace (beta-site APP-cleaving enzyme)	1.86e5

The listing continues:
{"gene": "psq (pipsqueak)", "reagent": 1, "induced reporter light, run 1, well a": 9165, "induced reporter light, run 1, well b": 9345, "control promoter light, run 1, well a": 7740, "control promoter light, run 1, well b": 6960, "uninduced reporter light, run 1, well a": 3480, "call": "inactive"}
{"gene": "Ada (Adenosine deaminase)", "reagent": 1, "induced reporter light, run 1, well a": 22015, "induced reporter light, run 1, well b": 27680, "control promoter light, run 1, well a": 28360, "control promoter light, run 1, well b": 31785, "uninduced reporter light, run 1, well a": 1905, "call": "inactive"}
{"gene": "CG16964", "reagent": 1, "induced reporter light, run 1, well a": 1.10e5, "induced reporter light, run 1, well b": 1.43e5, "control promoter light, run 1, well a": 1.40e5, "control promoter light, run 1, well b": 1.50e5, "uninduced reporter light, run 1, well a": 11640, "call": "inactive"}
{"gene": "CG13064", "reagent": 1, "induced reporter light, run 1, well a": 1.65e5, "induced reporter light, run 1, well b": 96760, "control promoter light, run 1, well a": 1.25e5, "control promoter light, run 1, well b": 1.24e5, "uninduced reporter light, run 1, well a": 10585, "call": "inactive"}
{"gene": "CG4757", "reagent": 1, "induced reporter light, run 1, well a": 85945, "induced reporter light, run 1, well b": 1.13e5, "control promoter light, run 1, well a": 1.35e5, "control promoter light, run 1, well b": 81740, "uninduced reporter light, run 1, well a": 33345, "call": "inactive"}
{"gene": "CG12498", "reagent": 1, "induced reporter light, run 1, well a": 1.32e5, "induced reporter light, run 1, well b": 1.24e5, "control promoter light, run 1, well a": 3.27e5, "control promoter light, run 1, well b": 1.83e5, "uninduced reporter light, run 1, well a": 9020, "call": "inactive"}
{"gene": "CG17059", "reagent": 1, "induced reporter light, run 1, well a": 88000, "induced reporter light, run 1, well b": 88040, "control promoter light, run 1, well a": 1.15e5, "control promoter light, run 1, well b": 1.01e5, "uninduced reporter light, run 1, well a": 8340, "call": "inactive"}
{"gene": "Tep3 (Thioester-containing protein 3)", "reagent": 1, "induced reporter light, run 1, well a": 1.48e5, "induced reporter light, run 1, well b": 1.82e5, "control promoter light, run 1, well a": 2.11e5, "control promoter light, run 1, well b": 2.23e5, "uninduced reporter light, run 1, well a": 8965, "call": "inactive"}
{"gene": "side-VI (sidestep VI)", "reagent": 1, "induced reporter light, run 1, well a": 1.79e5, "induced reporter light, run 1, well b": 1.53e5, "control promoter light, run 1, well a": 1.66e5, "control promoter light, run 1, well b": 1.97e5, "uninduced reporter light, run 1, well a": 10890, "call": "inactive"}
{"gene": "side-VI (sidestep VI)", "reagent": 2, "induced reporter light, run 1, well a": 1.51e5, "induced reporter light, run 1, well b": 1.30e5, "control promoter light, run 1, well a": 1.44e5, "control promoter light, run 1, well b": 1.52e5, "uninduced reporter light, run 1, well a": 12428, "call": "inactive"}
{"gene": "side-VI (sidestep VI)", "reagent": 3, "induced reporter light, run 1, well a": 54885, "induced reporter light, run 1, well b": 58150, "control promoter light, run 1, well a": 79040, "control promoter light, run 1, well b": 55895, "uninduced reporter light, run 1, well a": 2345, "call": "inactive"}
{"gene": "side-VI (sidestep VI)", "reagent": 4, "induced reporter light, run 1, well a": 56980, "induced reporter light, run 1, well b": 55610, "control promoter light, run 1, well a": 52325, "control promoter light, run 1, well b": 52875, "uninduced reporter light, run 1, well a": 3295, "call": "inactive"}
